## Screening data, single-dose tests

Chains of the proteins cited; added tags and fusions are not shown. Residues count along the entry.
UniProt P9WNZ1, whole entry: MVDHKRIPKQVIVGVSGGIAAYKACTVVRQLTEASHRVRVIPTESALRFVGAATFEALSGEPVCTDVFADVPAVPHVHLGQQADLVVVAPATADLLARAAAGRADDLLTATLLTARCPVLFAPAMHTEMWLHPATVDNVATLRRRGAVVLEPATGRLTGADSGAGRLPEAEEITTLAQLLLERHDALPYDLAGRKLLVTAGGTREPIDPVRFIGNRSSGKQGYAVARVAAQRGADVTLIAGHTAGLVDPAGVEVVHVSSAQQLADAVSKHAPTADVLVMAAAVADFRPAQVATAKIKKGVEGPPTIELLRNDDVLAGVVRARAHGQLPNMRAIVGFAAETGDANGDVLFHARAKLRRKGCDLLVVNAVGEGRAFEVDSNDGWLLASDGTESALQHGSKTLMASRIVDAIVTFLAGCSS
UniProt Q4DA54, 1-478: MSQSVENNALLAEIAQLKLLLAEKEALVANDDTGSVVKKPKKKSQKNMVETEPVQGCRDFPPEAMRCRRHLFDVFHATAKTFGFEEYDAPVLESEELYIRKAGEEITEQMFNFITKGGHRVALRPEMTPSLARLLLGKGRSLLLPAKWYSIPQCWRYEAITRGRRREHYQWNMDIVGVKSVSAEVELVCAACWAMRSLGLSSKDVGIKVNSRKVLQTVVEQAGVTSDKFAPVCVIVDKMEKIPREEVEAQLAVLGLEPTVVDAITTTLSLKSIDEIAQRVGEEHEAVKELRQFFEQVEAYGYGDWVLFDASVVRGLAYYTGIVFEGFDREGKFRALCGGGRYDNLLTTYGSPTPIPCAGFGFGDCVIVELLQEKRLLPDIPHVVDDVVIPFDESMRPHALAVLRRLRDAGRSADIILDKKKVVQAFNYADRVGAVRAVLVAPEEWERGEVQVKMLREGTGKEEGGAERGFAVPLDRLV

CoaBC: 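Coenzyme A biosynthesis protein CoaBC, Mycobacterium tuberculosis (UniProt P9WNZ1). Enzyme assay of CoaBC with a phosphate dye (Biomol Green) read at 650 nm. Compounds at 30 µM. Higher reads as stronger inhibition, judged from the few compounds that gave an IC50. Most strong results did not repeat in a second test. Size under these conditions: about 67,000 compounds, about 40 of them at 50% or above in at least one test.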
TcHisRS: 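Enzyme assay of histidyl-tRNA synthetase; the read-out is not stated. Target: Histidine-tRNA ligase, Trypanosoma cruzi CL Brener (UniProt Q4DA54). Tested at 30 µM. The record gives no direction; compounds that gave an IC50 in retests scored well above the rest, so higher reads as stronger inhibition. Of about 69,000 compounds tested this way, about 31 (0.045%) reached 50% or more in at least one test.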

The filed quantity is “Percent Effect” (%). The controls that fix the scale are not given in the record; negative values are as filed. The compounds are a random part of those screened. A dash means the value is not listed here; it may have been measured.

Compound | CoaBC | TcHisRS
Cc1c(CN2C[C@H](O)[C@@H](N3CCOCC3)C2)[nH]c2ccc(F)cc12 | -5.542 | 1.98
O=C(CCNc1ncccn1)NCCc1ccc(Cl)s1 | 9.627 | -3.448
O=C(CCCc1nc2ccccc2[nH]1)N1CCCC(n2cccn2)C1 (centres undefined) | -3.457 | 1.141
O=C([C@@H]1CCS(=O)(=O)[C@@H]2CN(c3ncccn3)C[C@@H]21)N1CCOCC1 | -1.361 | 6.533
CS(=O)(=O)N1CCO[C@H]2[C@@H](Oc3ncccc3F)CC[C@@H]21 | 3.03 | 3
CCNC(=O)NC[C@H]1COCc2nc3cc(C)ccc3n21 | -11.26 | 5.435
CN1CC(Oc2ccccc2)=NC(SCC(=O)Nc2ccc(Cl)cc2)=N1 | 2.444 | 8.995
CN1CCN(Cc2cn3c(n2)CN(Cc2cccc(F)c2)CC3)CC1 | 3.837 | -0.5025
CCCN(C)CC1CCN(c2ccc(Br)c(C)n2)C1 (centres undefined) | -6.329 | 6.404
CCCOC1CCCN(C(=O)c2cnc(-c3csc(C)n3)nc2O)C1 (centres undefined) | 8.442 | 5.6
O=C(c1ccco1)N(CC(F)(F)F)C1CCOCC1 | 8.403 | 0
CCn1nccc1C(=O)Nc1nc(C)c(C(C)=O)s1 | -2.806 | 12.95
Cc1noc(C)c1CN1CC[C@H]2OCC[C@@H](C(=O)NCC3CC3)[C@@H]2C1 | 0.3807 | 0.5405
O=C(c1cccc2c1OCCO2)N1CCCCC1Cn1cccn1 (centres undefined) | -1.944 | 3.361
c1cnc(-c2cnc(N3CCCCC3)nc2C2CCCO2)cn1 (centres undefined) | 4.585 | 8.24
O=C(c1ccccc1Cl)N1CC[C@H](O)[C@@H](N2CCOCC2)CC1 | 0.9709 | 14.29
Cc1ncsc1CN1C[C@H]2CC[C@@H]1CN(Cc1ccccc1)C2 | 3.125 | 11.39
COCC(=O)N[C@H](C)c1onc(-c2ccc(F)cc2)c1C(=O)O | -3.311 | 2.174
COc1cccc(CN2CCC(c3nnc(-c4cnc(C)cn4)o3)C2)c1 (centres undefined) | 3.253 | 12.43
Cc1nc(C)c(C)c(N2CCC(O)(c3ccc(F)cc3)CC2)n1 | -3.469 | 5.579
CC(C)(C)c1ncc(C(=O)NCCNC(=O)c2ccccc2)s1 | 3.172 | 3.788
CCc1noc(C2CC(=O)N(CCN(C)C)C2)n1 (centres undefined) | 2.299 | 2.424
CC(=O)N1CCC(c2cnc(-c3c(C)nn(C)c3C)cn2)CC1 | 0.3717 | 0
O=C(Nc1ccnc(OC2CCOC2)c1)c1ccc(F)cc1Cl (centres undefined) | -0.9615 | 4.926
O=C(Nc1ccccn1)c1ccc(F)c(S(=O)(=O)NC2CC2)c1 | 2.166 | 4.972
COc1cc(-c2n[nH]c(CCN)n2)cc(OC)c1OC | -2.892 | 13.86
CNC(=O)[C@@H](c1ccccc1F)N1CCC[C@H]1C(=O)NC1CC1 | 0.6452 | 4.478
CCc1noc(C2CCCCN2C(=O)c2ccc3c(c2)OCO3)n1 (centres undefined) | 4.157 | 6.087
CC1(C(=O)N2CCN(c3cnccn3)CC2)CNCCO1 (centres undefined) | 6.22 | 2.682
Cc1cccc(-n2ncc3c2CCCC3NCC(C)(C)CO)c1C (centres undefined) | 0.5089 | 0
Cc1ccc(CN2CCc3nnc(COCCN(C)C)n3CC2)o1 | -13.44 | -12.38
CCCn1[nH]cc/c1=N\C(=O)CN1CCc2c(nc(C3CC3)n2C)C1 | 6.527 | 7.289
O=C(CN(C1=NCCCC1)c1ccccc1)c1ccccc1 | 6.073 | 5.435
COc1cc(CN2CCCC23CCN(c2ccccn2)CC3)ccc1F | 3.831 | 1.212
Cc1ccc(N2C[C@H]3OCC[C@H]3[C@H](C(=O)NCC3CC3)C2)nn1 | 2.538 | 5.911
N[C@@H]1c2ccccc2C2(CCN(C(=O)c3ccc(=O)[nH]c3)CC2)[C@H]1O | 6.105 | 4.167
FC(F)(F)c1cccc(OC2CCN(Cc3c[nH]cn3)CC2)c1 | -12.72 | -3.478
CCCS(=O)(=O)NCC1OCCc2cn(CC3CCOCC3)nc21 (centres undefined) | 9.98 | -5.747
O=S(=O)(c1ccccc1Br)N1CCC2(CC1)OCCS2 | -9.764 | 0.5181
CCn1nnc2c1C(COCC(=O)N(C)C)CN(Cc1ccoc1)C2 (centres undefined) | 1.22 | 6.667
CCNC(=O)NC(=O)CNC(C)(CC)c1nc(C)cs1 (centres undefined) | -1.952 | -2.128
Cn1cc(C(=O)NCC2CCN(C(=O)NCC(F)(F)F)CC2)cn1 | 6.527 | 2.632
O=C(O)[C@@H]1CCN(C(=O)c2ccccn2)[C@@H]1c1ccc(F)cc1 | -5.463 | 6.923
CCn1c(CC2CCN(C(=O)c3ccnn3C)CC2)n[nH]c1=O | 7.2 | 5.747
CC(C)n1ccnc1C1CCCN(c2ccncc2F)C1 (centres undefined) | 1.285 | 6.704
Cc1cnn(CC2CCCN2C(=O)c2c(F)cccc2Cl)c1 (centres undefined) | -7.239 | 4.843
O=C(c1coc2ccccc12)N1CCS(=O)(=O)CC1 | - | 1.316
Cn1cc(C(=O)N[C@@H]2CN(Cc3cccs3)[C@@H]3CCCO[C@@H]32)cn1 | 1.904 | -0.5405
CC(=O)NC1CCCN(c2nc3ccccc3cc2CO)C1 (centres undefined) | -3.893 | 11.52
CCOCCN1CCN(Cc2cccc(C(=O)N(C)C)c2)CC1CC (centres undefined) | -1.044 | 6.78
Cc1nnc(N2C[C@H](OCc3cccnc3)[C@H]3OCCC[C@H]32)s1 | 9.627 | -7.463
CCN(CC1CCOC1)C(=O)c1cn2ccc(C)cc2n1 (centres undefined) | -2.755 | 10.26
CC(=O)N1CCCN(c2cc(C3CN(C)CCO3)nc(C)n2)CC1 (centres undefined) | 5.824 | -2.996
CCOC(=O)c1sc2ccsc2c1CNC(=O)C(C)OC (centres undefined) | -3.611 | 1.458
CN1CCN(C(=O)c2cccs2)Cc2ccccc21 | 1.613 | 1.676
CCOCCCNc1cc(C)nn2cnnc12 | 9.007 | 0
O=C(Cc1ccccc1)N1C[C@@H]2OCCN(CC3CCCO3)[C@@H]2C1 (some centres undefined) | -0.8631 | 4.386
CN(C)C(C(=O)Nc1nccs1)c1c(F)cccc1Cl (centres undefined) | 4.628 | 1.685
O=C(NCc1ccccn1)c1nnn(-c2ccc(Br)cc2)n1 | 4.436 | 5.435
CC1(C)CN(Cc2c[nH]c(CC3CCCC3)n2)CC[C@]1(C)O | - | 3.896
OCCN1CCN(Cc2cc(Cl)cc3cccnc23)CC1 | 0.216 | 4.082
Nc1nnc(CCCNc2ncnc3c2CCN(C(=O)C2CC2)C3)s1 | 3.902 | 6.494
Cc1cn2c(n1)C(CNCC1=Cc3ccccc3OC1)CCC2 (centres undefined) | -17.51 | 11.67
Cc1occc1C(=O)NCC(=O)N1CCCC(c2ccccc2)CC1 (centres undefined) | 0.4878 | 0.9804
Cc1cc(CN(C)C(=O)Nc2ccccc2C)no1 | -9.685 | 4.348
Cc1ccc(CN2CC[C@H]3OCC[C@@H](C(=O)NCC4CC4)[C@@H]3C2)o1 | 7.818 | 4.902
CSc1ccc(C(=O)N2CCCC(Nc3ccc(F)cc3)C2)cc1 (centres undefined) | 0.6031 | 2.513
Cc1cc(C#N)ccc1S(=O)(=O)N1CCN(C)Cc2ccccc21 | -22.2 | 5.172
c1ccc2oc(C3CCN(Cc4ncon4)CC3)nc2c1 | -2.086 | 4.938
COc1c(CNC2CCN(c3ncccn3)CC2)c(C)nn1C | -30.52 | 0.578
CNC(=O)C1Cc2ccccc2CN1CCC#N (centres undefined) | -5.622 | 4.255
O=C(O)[C@@H]1CN(C(=O)Cc2ccccc2Cl)C[C@H]1C1CC1 | 1.157 | 3
CCn1cnnc1C1CCN(C(=O)c2ccc(C(=O)OC)s2)CC1 | 1.928 | 2.29
COc1ccccc1C(C)CC(=O)N1CC[C@H](O)C1 (some centres undefined) | 3.2 | -3.448
CC(C)c1nc(CN2CCCN(c3nccs3)CC2)no1 | 1.673 | 3.429
c1ccc2c(c1)OCCC2NCc1ccc(N2CCOCC2)cc1 (centres undefined) | 4.615 | 6.186
Cc1cc(C(=O)Nc2cnn(CC(=O)NC3CCCC3)c2)c(C)s1 | 4.242 | 1.02
Cc1ccccc1CC1(C(=O)O)CCCN(c2ncnc3[nH]ccc23)C1 (centres undefined) | 2.751 | 1.288
CCN1C[C@H]2CCN(C(=O)NC3CCCC3)CC[C@H]2S1(=O)=O | 1.211 | 0.5464
CC(C)c1cc(CN(C)C(=O)CN2CCNC2=O)no1 | -1.446 | 8.911
Cc1nn(CCO)cc1CN1CCC(N2CCC(O)CC2)CC1 | -2.581 | 9.36
O=C(c1cnc(-c2ccco2)s1)N1CCOc2ncccc21 | 1.844 | 3.191
CSCC(CCO)NC(=O)Nc1cccc(Br)c1 (centres undefined) | -6.183 | 2.479
N#Cc1cc2cc(Cl)cnc2nc1O | 11.28 | 10.42

10 of the entries, repeated:

Compound,CoaBC,TcHisRS
Cc1cc(C#N)ccc1S(=O)(=O)N1CCN(C)Cc2ccccc21,-22.2,5.172
Cc1c(CN2C[C@H](O)[C@@H](N3CCOCC3)C2)[nH]c2ccc(F)cc12,-5.542,1.98
CNC(=O)[C@@H](c1ccccc1F)N1CCC[C@H]1C(=O)NC1CC1,0.6452,4.478
CC(C)c1cc(CN(C)C(=O)CN2CCNC2=O)no1,-1.446,8.911
O=C(Nc1ccnc(OC2CCOC2)c1)c1ccc(F)cc1Cl (centres undefined),-0.9615,4.926
COc1cc(-c2n[nH]c(CCN)n2)cc(OC)c1OC,-2.892,13.86
O=C(O)[C@@H]1CN(C(=O)Cc2ccccc2Cl)C[C@H]1C1CC1,1.157,3
Cc1cn2c(n1)C(CNCC1=Cc3ccccc3OC1)CCC2 (centres undefined),-17.51,11.67
CCNC(=O)NC[C@H]1COCc2nc3cc(C)ccc3n21,-11.26,5.435
c1ccc2oc(C3CCN(Cc4ncon4)CC3)nc2c1,-2.086,4.938

Source: ChEMBL document CHEMBL3988442, “University of Dundee, Small-Polar-MMV Screening Library” (2021).